Test results reported in the supplement of paper PMC4604168 (melanoma cell lines).
The list shows a part of the results. Single values are uncertain, as repeats are few or missing.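 Cells were imaged in 1,536-well plates, and nuclei stained with an antibody against cleaved PARP were counted against all DNA-stained nuclei to give the apoptosis fraction. Screening doses were chosen to leave most cells alive, and resting and induced cleaved-PARP levels differ strongly between cell lines.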

Test system: COLO800
Assay: cleaved PARP positive nuclei fraction relative to DMSO control; melanoma cells; higher = more apoptosis
Conditions: library dose: low library concentration; 72 h

In order of falling “cleaved PARP positive nuclei fraction” value:
1. CCCCCCCCc1ccc(CCC(N)(CO)CO)cc1 [fingolimod] + CC(=O)O[C@@]12CO[C@@H]1C[C@H](O)[C@@]1(C)C(=O)[C@H](O)C3=C(C)[C@@H](OC(=O)[C@H](O)[C@@H](NC(=O)OC(C)(C)C)c4ccccc4)C[C@@](O)([C@@H](OC(=O)c4ccccc4)[C@H]21)C3(C)C [Docetaxel] (first compound 2 µM, partner dose 0.0001 µM)  346%
2. C[C@]1(O)C[C@@H](c2nc(-c3ccc4ccc(-c5ccccc5)nc4c3)c3c(N)nccn32)C1 + Cc1cc(Nc2cc(N3CCN(C)CC3)nc(/C=C/c3ccccc3)n2)n[nH]1 [ENMD2076] (first compound 0.4 µM, partner dose 0.04 µM)  274%
3. CN(c1ncccc1CNc1nc(Nc2ccc3c(c2)CC(=O)N3)ncc1C(F)(F)F)S(C)(=O)=O + CS(=O)(=O)CCNCc1ccc(-c2ccc3ncnc(Nc4ccc(OCc5cccc(F)c5)c(Cl)c4)c3c2)o1 [lapatinib] (first compound 0.08 µM, partner dose 0.8 µM)  136%
4. CCCCCCCCc1ccc(CCC(N)(CO)CO)cc1 [fingolimod] + COCC[n+]1c2c(n(Cc3cnccn3)c1C)C(=O)c1ccccc1C2=O [YM155] (first compound 2 µM, partner dose 0.0004 µM)  125%
5. NC(=O)c1ccc(N(C(N)=O)c2c(F)cccc2F)nc1-c1ccc(F)cc1F + CCCCCCCCc1ccc(CCC(N)(CO)CO)cc1 [fingolimod] (first compound 0.4 µM, partner dose 2 µM)  116%
6. C[C@]1(O)C[C@@H](c2nc(-c3ccc4ccc(-c5ccccc5)nc4c3)c3c(N)nccn32)C1 + CS(=O)(=O)CCNCc1ccc(-c2ccc3ncnc(Nc4ccc(OCc5cccc(F)c5)c(Cl)c4)c3c2)o1 [lapatinib] (first compound 0.4 µM, partner dose 0.8 µM)  109%
7. Cn1sc(=O)n(Cc2ccccc2)c1=O + C[C@@H](Oc1cc(-c2cnn(C3CCNCC3)c2)cnc1N)c1c(Cl)ccc(F)c1Cl [Crizotinib] (first compound 0.4 µM, partner dose 0.2 µM)  107%
8. Cn1sc(=O)n(Cc2ccccc2)c1=O + CNC(=O)c1cc(Oc2ccc(NC(=O)Nc3ccc(Cl)c(C(F)(F)F)c3)cc2)ccn1 [sorafenib] (first compound 0.4 µM, partner dose 0.4 µM)  103%
9. NC1(c2ccc(-c3nc4ccn5c(=O)[nH]nc5c4cc3-c3ccccc3)cc2)CCC1 + C[C@@H](Oc1cc(-c2cnn(C3CCNCC3)c2)cnc1N)c1c(Cl)ccc(F)c1Cl [Crizotinib] (first compound 0.4 µM, partner dose 0.2 µM)  95.3%
10. C[C@@H](N)c1ccc(C(=O)Nc2ccnc3[nH]ccc23)cc1 + CC(C)C[C@H](NC(=O)[C@H](Cc1ccccc1)NC(=O)c1cnccn1)B(O)O [Bortezomib] (first compound 0.4 µM, partner dose 0.001 µM)  86.2%
11. NC1(c2ccc(-c3nc4ccn5c(=O)[nH]nc5c4cc3-c3ccccc3)cc2)CCC1 + CO[C@H]1C[C@@H]2CC[C@@H](C)[C@@](O)(O2)C(=O)C(=O)N2CCCC[C@H]2C(=O)O[C@H]([C@H](C)C[C@@H]2CC[C@@H](OCCO)[C@H](OC)C2)CC(=O)[C@H](C)/C=C(\C)[C@@H](O)[C@@H](OC)C(=O)[C@H](C)C[C@H](C)/C=C/C=C/C=C/1C [everolimus] (first compound 0.4 µM, partner dose 0.02 µM)  76.3%

Test system: COLO829
Assay: as above
Conditions: library dose: low library concentration; 72 h

In order of falling “cleaved PARP positive nuclei fraction” value:
1. NC(=O)c1ccc(N(C(N)=O)c2c(F)cccc2F)nc1-c1ccc(F)cc1F + C#Cc1cccc(Nc2ncnc3cc(OCCOC)c(OCCOC)cc23)c1 [erlotinib] (first compound 0.4 µM, partner dose 0.8 µM)  194%
2. C[C@]1(O)C[C@@H](c2nc(-c3ccc4ccc(-c5ccccc5)nc4c3)c3c(N)nccn32)C1 + CC(=O)O[C@@]12CO[C@@H]1C[C@H](O)[C@@]1(C)C(=O)[C@H](O)C3=C(C)[C@@H](OC(=O)[C@H](O)[C@@H](NC(=O)OC(C)(C)C)c4ccccc4)C[C@@](O)([C@@H](OC(=O)c4ccccc4)[C@H]21)C3(C)C [Docetaxel] (first compound 0.4 µM, partner dose 0.0001 µM)  188%
3. CC1(C)CCC(c2ccc(Cl)cc2)=C(CN2CCN(c3ccc(C(=O)NS(=O)(=O)c4ccc(N[C@H](CCN5CCOCC5)CSc5ccccc5)c(S(=O)(=O)C(F)(F)F)c4)cc3)CC2)C1 + Nc1ccn([C@@H]2O[C@H](CO)[C@@H](O)C2(F)F)c(=O)n1 [gemcitabine] (first compound 0.4 µM, partner dose 0.0004 µM)  117%
4. Cn1sc(=O)n(Cc2ccccc2)c1=O + CN(c1ncccc1CNc1nc(Nc2ccc3c(c2)CC(=O)N3)ncc1C(F)(F)F)S(C)(=O)=O [PF562271] (first compound 0.4 µM, partner dose 0.08 µM)  113%
5. CN(c1ncccc1CNc1nc(Nc2ccc3c(c2)CC(=O)N3)ncc1C(F)(F)F)S(C)(=O)=O + C[C@]1(c2nc3c(C(N)=O)cccc3[nH]2)CCCN1 [Veliparib] (first compound 0.08 µM, partner dose 1.4 µM)  113%
6. C[C@@H](N)c1ccc(C(=O)Nc2ccnc3[nH]ccc23)cc1 + Cn1sc(=O)n(Cc2ccccc2)c1=O [TDZD-8] (first compound 0.4 µM, partner dose 0.4 µM)  111%
7. C[C@]1(O)C[C@@H](c2nc(-c3ccc4ccc(-c5ccccc5)nc4c3)c3c(N)nccn32)C1 + OCc1c[nH]c2ccccc12 [Indole-3-carbinol] (first compound 0.4 µM, partner dose 0.8 µM)  105%
8. CC1(C)CCC(c2ccc(Cl)cc2)=C(CN2CCN(c3ccc(C(=O)NS(=O)(=O)c4ccc(N[C@H](CCN5CCOCC5)CSc5ccccc5)c(S(=O)(=O)C(F)(F)F)c4)cc3)CC2)C1 + Cn1sc(=O)n(Cc2ccccc2)c1=O [TDZD-8] (first compound 0.4 µM, partner dose 0.4 µM)  103%
9. COc1ccc(C2=N[C@@H](c3ccc(Cl)cc3)[C@@H](c3ccc(Cl)cc3)N2C(=O)N2CCNC(=O)C2)c(OC(C)C)c1 [Nutlin-3] + NC1(c2ccc(-c3nc4ccn5c(=O)[nH]nc5c4cc3-c3ccccc3)cc2)CCC1 [MK2206] (first compound 0.1 µM, partner dose 0.4 µM)  100%
10. CS(=O)(=O)c1ccc(C(=O)Nc2ccc(Cl)c(-c3ccccn3)c2)c(Cl)c1 [vismodegib] + CCCCCCCCc1ccc(CCC(N)(CO)CO)cc1 [fingolimod] (first compound 1 µM, partner dose 2 µM)  90.6%
11. CC1(C)CCC(c2ccc(Cl)cc2)=C(CN2CCN(c3ccc(C(=O)NS(=O)(=O)c4ccc(N[C@H](CCN5CCOCC5)CSc5ccccc5)c(S(=O)(=O)C(F)(F)F)c4)cc3)CC2)C1 + O=C(O)[C@@H]1[O][Sb](=[O])([O][Sb]2(=[O])[O][C@H]([C@H](O)CO)[C@H](O)[C@H](C(=O)O)[O]2)[O][C@H]([C@H](O)CO)[C@@H]1O [stibogluconate] (first compound 0.4 µM, partner dose 2 µM)  87.8%
12. C[C@]1(O)C[C@@H](c2nc(-c3ccc4ccc(-c5ccccc5)nc4c3)c3c(N)nccn32)C1 + CCCS(=O)(=O)Nc1ccc(F)c(C(=O)c2c[nH]c3ncc(Cl)cc23)c1F [PLX4720] (first compound 0.4 µM, partner dose 0.08 µM)  86.6%
13. Cn1cnc2c(F)c(Nc3ccc(Br)cc3Cl)c(C(=O)NOCCO)cc21 [selumetinib] + CNC(=O)c1cc(Oc2ccc(NC(=O)Nc3ccc(Cl)c(C(F)(F)F)c3)cc2)ccn1 [sorafenib] (first compound 0.015 µM, partner dose 0.4 µM)  69.3%
14. CC1(C)CCC(c2ccc(Cl)cc2)=C(CN2CCN(c3ccc(C(=O)NS(=O)(=O)c4ccc(N[C@H](CCN5CCOCC5)CSc5ccccc5)c(S(=O)(=O)C(F)(F)F)c4)cc3)CC2)C1 + CS(=O)(=O)CCNCc1ccc(-c2ccc3ncnc(Nc4ccc(OCc5cccc(F)c5)c(Cl)c4)c3c2)o1 [lapatinib] (first compound 0.4 µM, partner dose 0.8 µM)  64%
15. CS(=O)(=O)c1ccc(C(=O)Nc2ccc(Cl)c(-c3ccccn3)c2)c(Cl)c1 [vismodegib] + OCc1c[nH]c2ccccc12 [Indole-3-carbinol] (first compound 1 µM, partner dose 0.8 µM)  57.3%
16. NC1(c2ccc(-c3nc4ccn5c(=O)[nH]nc5c4cc3-c3ccccc3)cc2)CCC1 + CCCS(=O)(=O)Nc1ccc(F)c(C(=O)c2c[nH]c3ncc(Cl)cc23)c1F [PLX4720] (first compound 0.4 µM, partner dose 0.08 µM)  37.4%
17. COc1ccc(C2=N[C@@H](c3ccc(Cl)cc3)[C@@H](c3ccc(Cl)cc3)N2C(=O)N2CCNC(=O)C2)c(OC(C)C)c1 [Nutlin-3] + Clc1ccc(Nc2nnc(Cc3ccncc3)c3ccccc23)cc1 [vatalanib] (first compound 0.1 µM, partner dose 2 µM)  32.2%
18. Cn1cnc2c(F)c(Nc3ccc(Br)cc3Cl)c(C(=O)NOCCO)cc21 [selumetinib] + C#Cc1cccc(Nc2ncnc3cc(OCCOC)c(OCCOC)cc23)c1 [erlotinib] (first compound 0.015 µM, partner dose 0.8 µM)  29.6%
